Patent US20180194851A1 (Pfizer, published 2018)
Positions count from the first letter of the chain named. No constants are given. Whether binding was seen depends on the method and setting.

B1: MOR-7480 (IgG1) (antibody, V domains shown)
VH: QVQLVQSGAEVKKPGESLKISCKGSGYSFSTYWISWVRQMPGKGLEWMGKIYPGDSYTNYSPSFQGQVTISADKSISTAYLQWSSLKASDTAMYYCARGYGIFDYWGQGTLVTVSS
VL: DIELTQPPSVSVAPGQTARISCSGDNIGDQYAHWYQQKPGQAPVVVIYQDKNRPSGIPERFSGSNSGNTATLTISGTQAEDEADYYCATYTGFGSLAVFGGGTKLTVL
notes: Human IgG1 format, lambda light chain
B2: MOR-7480 (IgG2) (antibody, V domains shown)
VH: B1 VH
VL: DIELTQPPSVSVAPGQTARISCSGDNIGDQYAHWYQQKPGQAPVVVIYQDKNRPSGIPERFSGSNSGNTATLTISGTQAEDEADYYCATYTGFGSLAVFGGGTKLTVLG
B3: MOR-7483 (IgG2) (antibody, V domains shown)
VH: B1 VH
VL: B2 VL with A88S, G92F, F93V, S95F, L96T, A97T
notes: also called 7483_G2
B4: MOR-7483 (IgG1) (antibody, V domains shown)
VH: B1 VH
VL: B1 VL with A88S, G92F, F93V, S95F, L96T, A97T
notes: Human IgG1 format, lambda light chain; also called 7483_G1

Molecular target: rat 4-1BB on PHA stimulated PBMC (rat)
Assay: flow cytometry, Alexa Fluor 647 conjugated antibody at 100 nM on PHA stimulated and unstimulated rat PBMC

binding | Binder
no binding (tested: 100 nM) | B1
no binding (tested: 100 nM) | B2
no binding (tested: 100 nM) | B3
no binding (tested: 100 nM) | B4
